No constants are given. Whether binding was seen depends on the method and setting. Binding can be weak; no strength is given.

One assay deals with T1, recombinant fibulin-1 (UniProt P23142).
T1 sequence: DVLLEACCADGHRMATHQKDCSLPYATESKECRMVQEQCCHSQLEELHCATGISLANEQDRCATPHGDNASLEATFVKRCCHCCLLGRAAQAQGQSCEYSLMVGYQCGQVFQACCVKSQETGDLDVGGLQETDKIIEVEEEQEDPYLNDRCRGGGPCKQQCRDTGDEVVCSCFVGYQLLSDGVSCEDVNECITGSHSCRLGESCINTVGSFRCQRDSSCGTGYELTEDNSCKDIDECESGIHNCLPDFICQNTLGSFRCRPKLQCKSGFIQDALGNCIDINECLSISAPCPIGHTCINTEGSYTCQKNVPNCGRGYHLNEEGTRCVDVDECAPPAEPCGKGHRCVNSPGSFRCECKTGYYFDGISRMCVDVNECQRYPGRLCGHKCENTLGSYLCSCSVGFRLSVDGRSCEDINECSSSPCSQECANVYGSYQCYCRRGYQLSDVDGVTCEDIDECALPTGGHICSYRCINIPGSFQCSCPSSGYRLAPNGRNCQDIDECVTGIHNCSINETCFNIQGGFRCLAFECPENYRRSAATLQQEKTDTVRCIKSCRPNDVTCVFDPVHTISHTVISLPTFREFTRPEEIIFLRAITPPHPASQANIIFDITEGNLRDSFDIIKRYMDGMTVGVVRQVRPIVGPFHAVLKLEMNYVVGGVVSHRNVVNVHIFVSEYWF
The assay can be described thus: SPR; BIAcore 2000; fibulin-1, tenascin-C (FNIII 3-5) or tenascin-R (FNIII 3-5) immobilised in CM5 flow cells to 811, 662 and 233 RU; aggrecan G3 domains (E1E2LCt) injected at 50, 100 or 200 nM, 50 µl/min; 10 mM HEPES-HCl, 150 mM NaCl, 2 mM CaCl2, 0.005% P20, pH 7.5; both purified. Background: SPR reads the build-up and loss of mass on a sensor chip optically.

Assay [1] concerns the target recombinant tenascin-C (fibronectin type III repeats 3–5) (UniProt P24821). The assay is described as above.

“recombinant wild-type aggrecan G3 domain (E1E2LCt splice form) (from UniProt P16112-4) (domain or fragment)”: the binding result (with recombinant fibulin-1; in assay [1]) was “binds” in each case.

The record behind these values is article PMC8956744.
